Results reported in PubChem BioAssay AID1345085 (National Center for Advancing Translational Sciences (NCATS), 2018).
This list was built around the results that the source calls inconclusive (neither active nor inactive); the mix of calls is not that of the screen. Potencies of inconclusive entries are doubtful fits and often do not repeat. The source made the active and inactive calls. The call rests on the fitted dose curve; in most records, active means well fitted cell-killing curve with a large enough effect; inconclusive means small, poorly fitted or top-dose-only effect, or effect the other way; inactive means no such curve, though single readings can be large or run the other way.

system: Hek293T; assay: Confirmatory qHTS for gynecologic anti-cancer compounds from libraries of approved drugs and bioactive compounds; conditions: gynecologic cancer cell panel viability, ATPlite luminescence, 48 h; series mostly up to 57.6 µM; further: nearly all actives have a fitted effect of over 55% in size
Method in brief: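 1,000 cells/well; 16 h pre-incubation 37 C, 5% CO2; pin-transferred cpd in DMSO, 11 conc (1:3), 57.5 uM–0.977 nM; 48 h; ATPlite, 15 min RT; luminescence → IC50.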
On the % scale 0 is the no-effect control and ±100 the full control effect; potency means the concentration at half of the fitted maximal effect.

Row | SMILES | Potency | activity change, negative = viability loss
1 | Cc1ccc(C(=O)N(CCCN)C(c2nc3cc(Cl)ccc3c(=O)n2Cc2ccccc2)C(C)C)cc1 (stereo not given) | active: 0.0061 µM | 
2 | CC(C)[C@@H](CS(=O)(=O)C(C)C)N1C(=O)[C@@](C)(CC(=O)O)C[C@H](c2cccc(Cl)c2)[C@H]1c1ccc(Cl)cc1 | inconclusive: 0.485 µM [cytotoxic, full curve] | 
3 | CN1CCN(c2ccc(OC(F)(F)F)c(Nc3ncc4c(n3)-c3c(c(C(N)=O)nn3CCO)CC4)c2)CC1 | inconclusive: 5.44 µM [cytotoxic, full curve] | 
4 | Cn1c(=O)c(-c2c(Cl)cccc2Cl)cc2cnc(Nc3cccc(C(=O)O)c3)nc21 | inactive | 
5 | CCN(CC)CCOc1ccc(/C(=C(\Cl)c2ccccc2)c2ccccc2)cc1 | active: 126 µM | 
6 | O=C(Nc1cn[nH]c1-c1nc2ccc(CN3CCOCC3)cc2[nH]1)NC1CC1 | inconclusive: 12.2 µM [cytotoxic, full curve, poor fit] | 
7 | O=c1c(-c2ccc(O)cc2)coc2cc(O)cc(O)c12 | inactive | 
8 | Cc1cnc(Nc2ccc(F)cc2Cl)nc1-c1c[nH]c(C(=O)NC(CO)c2cccc(Cl)c2)c1 (stereo not given) | inconclusive: 4.85 µM [cytotoxic, single point] | 
9 | Cc1ccc(C(=O)Nc2ccc(Oc3cc4cnn(C)c4cc3-c3cn[nH]c3)c(F)c2)c(=O)n1-c1ccc(F)cc1 | active: 1.93 µM | 
10 | NC(=O)c1cccc2cn(-c3ccc([C@@H]4CCCNC4)cc3)nc12 | inactive | 
11 | Nc1nc(=S)c2[nH]cnc2[nH]1 | inconclusive: 15.3 µM [cytotoxic, single point] | 
12 | O=C(CCCCCCC(=O)Nc1ccccc1)NO | inconclusive: 12.2 µM [cytotoxic, full curve] | 
13 | Cc1cc(Nc2nc(N[C@@H](C)c3ccc(F)cc3)c(C#N)cc2F)n[nH]1 | inactive | 
14 | COc1cc(N2CCC(N)CC2)ccc1Nc1ncc(Cl)c(-c2c[nH]c3ccccc23)n1 | inconclusive: 15.3 µM [cytotoxic, partial curve, poor fit] | 
15 | COCCOc1nc(-c2ccc(Cl)c(Cl)c2)n(-c2ccc(NC(=O)CCl)cc2)n1 | active: 12.2 µM | 
16 | Cc1cc(Nc2cc(N3CCN(C)CC3)nc(Sc3ccc(NC(=O)C4CC4)cc3)n2)n[nH]1 | inconclusive: 17.2 µM [cytotoxic, partial curve, poor fit] | 
17 | O=C(/C=C/c1cccc(S(=O)(=O)Nc2ccccc2)c1)NO | active: 1.88 µM | 
18 | CNCc1ccc(-c2[nH]c3cc(F)cc4c3c2CCNC4=O)cc1 | inconclusive: 5.44 µM [cytotoxic, full curve] | 

Row | SMILES | Potency | activity change, negative = viability loss
19 | O=C(NOC[C@H](O)CO)c1ccc(F)c(F)c1Nc1ccc(I)cc1F | inconclusive: 0.0043 µM [cytotoxic, full curve, poor fit] | 
20 | Cc1nc(N)nc(N)c1-c1ccc(Cl)c(Cl)c1 | active: 1.22 µM | 
21 | Cc1cncc2cccc(S(=O)(=O)N3CCCN(C(=O)CN)C[C@@H]3C)c12 | inconclusive: 0.0137 µM [cytotoxic, full curve, poor fit] | 
22 | Cc1csc(NC(=O)c2sc3nc4c(c(C(F)(F)F)c3c2N)CCC4)n1 | active: 0.769 µM | 
23 | N=C(N)c1ccc(OCCCCCOc2ccc(C(=N)N)cc2)cc1 | inconclusive: 0.432 µM [cytotoxic, full curve, poor fit] | 
24 | CN(C)CC/C=C1\c2ccccc2COc2ccccc21 | inactive | 
25 | Nc1ccccc1NC(=O)c1ccc(CNc2nccc(-c3cccnc3)n2)cc1 | inconclusive: 5.44 µM [cytotoxic, full curve] | 
26 | COc1cc(N2CCC(N3CCN(C)CC3)CC2)ccc1Nc1ncc(Cl)c(Nc2ccccc2S(=O)(=O)C(C)C)n1 | active: 21.7 µM | 
27 | S=c1nc[nH]c2nc[nH]c12 | inconclusive: 24.3 µM [cytotoxic, partial curve, poor fit] | 
28 | COc1cc2c(Oc3ccc(-c4cnc(Nc5ccc(F)cc5)n(C)c4=O)cc3F)ccnc2cc1OCCCN1CCOCC1 | active: 15.3 µM | 
29 | COc1cc(-c2nn(C3CCC(N4CCN(C(C)=O)CC4)CC3)c3ncnc(N)c23)ccc1NC(=O)c1cc2ccccc2n1C (stereo not given) | inconclusive: 3.43 µM [rising, partial curve] | 
30 | Cc1nc2ccc(CN(C)c3ccc(C(=O)NC(CCC(=O)O)C(=O)O)s3)cc2c(=O)[nH]1 (stereo not given) | inconclusive: 0.193 µM [cytotoxic, full curve] | 
31 | CC(=O)O[C@H]1C(=O)[C@@]2(C)[C@H]([C@H](OC(=O)c3ccccc3)[C@]3(O)C[C@H](OC(=O)[C@H](O)[C@@H](NC(=O)c4ccccc4)c4ccccc4)C(C)=C1C3(C)C)[C@]1(OC(C)=O)CO[C@@H]1C[C@@H]2O |  | inactive: 4.91% [at 10.7 µM]
32 | CN(NC(=O)CC(=O)NN(C)C(=S)c1ccccc1)C(=S)c1ccccc1 | active: 0.0611 µM | 
33 | Cc1cc(CN2CCN(c3c(Br)cnc4nc(-c5ccc(N6CCN(C)CC6)cc5)[nH]c34)CC2)no1 | inconclusive: 0.0172 µM [cytotoxic, full curve] | 
34 | Cc1cc(C(C)Nc2ccccc2C(=O)O)c2nc(N3CCOCC3)cc(=O)n2c1 (stereo not given) | inconclusive: 21.7 µM [cytotoxic, partial curve, poor fit] | 
35 | CN(C)C/C=C/C(=O)Nc1cc2c(Nc3ccc(F)c(Cl)c3)ncnc2cc1OC1CCOC1 (stereo not given) | inconclusive: 0.485 µM [cytotoxic, partial curve, poor fit] | 

Individual results from the entries so far:
For Potency, `O=c1c(-c2ccc(O)cc2)coc2cc(O)cc(O)c12` reads inactive
For Potency, `Cc1ccc(C(=O)Nc2ccc(Oc3cc4cnn(C)c4cc3-c3cn[nH]c3)c(F)c2)c(=O)n1-c1ccc(F)cc1` reads active: 1.93 µM
For Potency, `O=C(CCCCCCC(=O)Nc1ccccc1)NO` reads inconclusive: 12.2 µM [cytotoxic, full curve]
